# According to article PMC7819943, “Rice protein-binding microarrays: a tool to detect cis-acting elements near promoter regions in rice”:
# Some of the results follow.
# Biological target: T1, OsSMF1 (Oryza sativa, UniProt Q6ZLB0 1-436)
# T1 sequence: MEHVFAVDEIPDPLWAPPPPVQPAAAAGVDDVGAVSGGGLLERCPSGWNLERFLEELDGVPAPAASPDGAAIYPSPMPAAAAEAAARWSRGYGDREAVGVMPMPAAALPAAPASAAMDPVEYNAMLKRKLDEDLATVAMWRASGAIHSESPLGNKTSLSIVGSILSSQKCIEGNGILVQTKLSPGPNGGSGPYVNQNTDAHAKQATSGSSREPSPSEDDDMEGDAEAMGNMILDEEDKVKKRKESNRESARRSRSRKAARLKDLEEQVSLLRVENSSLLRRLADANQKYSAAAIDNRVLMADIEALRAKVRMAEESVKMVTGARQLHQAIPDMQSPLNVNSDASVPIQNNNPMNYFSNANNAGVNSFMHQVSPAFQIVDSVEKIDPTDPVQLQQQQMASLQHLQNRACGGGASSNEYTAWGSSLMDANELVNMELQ
# Assay: protein-binding microarray (RPBM); PBS, 2% BSA, 51.3 ng/ul salmon testes DNA, 50 uM zinc acetate, 200 nM TF, 25 C, 1 h; high values mean tight binding
# Conditions: protein: recombinant; tags: N-terminal polyhistidine and DsRed monomer fusion (pET32a); chain copies: 2; label: CyDye5-dUTP incorporated in the synthesized complementary strand; 3' TTTTT single-stranded linker to array surface; dsDNA, one strand shown
# Outline: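 Binding signal is reported as fluorescence intensity per feature (arbitrary units) from an Axon 4000B scanner. Incubation used 200 nM of each Ni–NTA-purified, N-terminally polyhistidine- and DsRed-fused transcription factor from E. coli BL21-CodonPlus on a double-stranded custom Agilent array for 1 h at 25 °C, with 50 µM zinc acetate in the buffer, followed by washing.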
row,Sequence,binding signal
1,GTGGCATGCTTTTCAAACTGCTAAACGGTGTGACTCGTGCCGGAGTCACCTAGTGCAG,9580 fluorescence intensity (a.u.)
2,CCACACAGTCTACCTATACCTACTACTACCTGTCATCTTCCGGAGTCACCTAGTGCAG,20600 fluorescence intensity (a.u.)
3,ACAACAAACTACTCAAACTGTGGTAGCTGTCGTGGCGAGCCGGAGTCACCTAGTGCAG,4340 fluorescence intensity (a.u.)
4,TTGTTGGAATCAACTAGTCAGCATCTGCGTGCACACGGAGCGGAGTCACCTAGTGCAG,5920 fluorescence intensity (a.u.)
5,GGAGCCGTGGAGGAGTCGATGCCGTGGTGTGCGCGCGCGTCGGAGTCACCTAGTGCAG,3820 fluorescence intensity (a.u.)
6,CACCTCTTCTTGTCATGACTCCTAACAGTCAAGTTCCAACCGGAGTCACCTAGTGCAG,3250 fluorescence intensity (a.u.)
7,AATATCATCCGTGTCACTACCTAGCTCCTGCATGCTCTGCCGGAGTCACCTAGTGCAG,4560 fluorescence intensity (a.u.)
8,TCCGTTCTCGGCTCCCCGTCAGCTTGGTTCGCAGCGGTGTCGGAGTCACCTAGTGCAG,4600 fluorescence intensity (a.u.)
9,GATTCGGGAGGAAGAAGACCAGGTGCGCCAGCGTGGTGCACGGAGTCACCTAGTGCAG,6060 fluorescence intensity (a.u.)
10,AGGTTGCGCGGAGACGACGGATCCATCCACCGCCACCACGCGGAGTCACCTAGTGCAG,3460 fluorescence intensity (a.u.)
11,AATTAATTAACGTGTGTGCTTGCACAGCAGCCGACGTGTTCGGAGTCACCTAGTGCAG,4800 fluorescence intensity (a.u.)
12,GAAAGTTGCTGCGAACATACGTGATGACGCGACTAAAGCTCGGAGTCACCTAGTGCAG,5210 fluorescence intensity (a.u.)
13,CACACGGCTCAAACGCGCATACACGTAAACACACAAGCTTCGGAGTCACCTAGTGCAG,3250 fluorescence intensity (a.u.)
14,CTAATTATTAGCACTCCGGATCCAAACATGACTGTGTCAACGGAGTCACCTAGTGCAG,3740 fluorescence intensity (a.u.)
15,AGGTGGAGGGATGCGAAGGGGCGCCGTGACGCTGCAGCGGCGGAGTCACCTAGTGCAG,3240 fluorescence intensity (a.u.)
16,TACTCCTCGTCATTTTGGTTTTGGTTTTGGTTTGGGTGGTCGGAGTCACCTAGTGCAG,3690 fluorescence intensity (a.u.)
17,CACGCTGACTCAACCAGATTGATAATAGTCAACTCGTCACCGGAGTCACCTAGTGCAG,5040 fluorescence intensity (a.u.)
18,GAGACAACAGCACAGGACAGCGCAGGGTGGACTCGAGGTGCGGAGTCACCTAGTGCAG,3170 fluorescence intensity (a.u.)
19,GACCATCACGCCGACGTTGTTGACGATGACGCAGAGCTAGCGGAGTCACCTAGTGCAG,4290 fluorescence intensity (a.u.)
20,TTTTAGAATTCCTATTATACGTCACTACTACACTTCATTACGGAGTCACCTAGTGCAG,4900 fluorescence intensity (a.u.)
21,ATACACTTCACTCACACACCGCCCCGTCATTGCCCCGGCGCGGAGTCACCTAGTGCAG,6620 fluorescence intensity (a.u.)
22,GATCCATGTATGAGTTGGATTTTAAGTTCGTTTGCTTTTCCGGAGTCACCTAGTGCAG,4010 fluorescence intensity (a.u.)
23,ACGCCGTGGGCGCCGTCCTTGGCCGCCGCGGCGAAGTCCCCGGAGTCACCTAGTGCAG,27800 fluorescence intensity (a.u.)
24,GGTTGAATTCCCGCACGTTTTCCGCCTGGTCGCCACGCGGCGGAGTCACCTAGTGCAG,4360 fluorescence intensity (a.u.)
25,ACTGAATTGAGCTGCCAAGCAAGCGTAATTTCGCCCTGATCGGAGTCACCTAGTGCAG,32000 fluorescence intensity (a.u.)
26,TACTCGGCGTCCGCCACCGTGGCGGTCATGCCCAAGAACACGGAGTCACCTAGTGCAG,7920 fluorescence intensity (a.u.)
27,GGTCCTCATGGGTCCACGTAGCCAGTCCCATTTGTAAGTACGGAGTCACCTAGTGCAG,3920 fluorescence intensity (a.u.)

row,Sequence,binding signal
1,CTAGTTCGCTACAGCGAATCGGTGAATAGTAATTCTGAACCGGAGTCACCTAGTGCAG,33700 fluorescence intensity (a.u.)
2,TGCTGTGGACGGATGTGGCGAAGGCGAAGGCCTAGGGGTGCGGAGTCACCTAGTGCAG,4160 fluorescence intensity (a.u.)
3,CACTAGGGTGATGAAGGGTCACTGGGGTCATAAACTCACGCGGAGTCACCTAGTGCAG,23700 fluorescence intensity (a.u.)
4,CTCCTTGCTTGTCATCGCCATTGCCATCGTCATCACAGCACGGAGTCACCTAGTGCAG,4820 fluorescence intensity (a.u.)
5,GCCTCTCGCTGGAGGTGCTCGACGTGTCGAGCAACCTCTTCGGAGTCACCTAGTGCAG,4520 fluorescence intensity (a.u.)
6,AGATGATCTAGGCGTGCGTGCATGCATGCGTGGCCCGCCACGGAGTCACCTAGTGCAG,4340 fluorescence intensity (a.u.)
7,AACGTGAACTAAACACATGTCGAAATGCAATCAAAATACCCGGAGTCACCTAGTGCAG,42000 fluorescence intensity (a.u.)
8,AGATCTTCCTCACCGCTAGCCACGCGCGGCATCCACTCCGCGGAGTCACCTAGTGCAG,3660 fluorescence intensity (a.u.)
9,AGTAAGCAGCCAGCGCGCGCGCAGCCGCCCACGCACGCAGCGGAGTCACCTAGTGCAG,4460 fluorescence intensity (a.u.)
10,AAACAGAACAGAACACGGGATGGTGTCTTACCTGTATACCCGGAGTCACCTAGTGCAG,3920 fluorescence intensity (a.u.)
11,AACAAAATAAAACTAAGCCGAGCCACCAGACGTATGGCCTCGGAGTCACCTAGTGCAG,36800 fluorescence intensity (a.u.)
12,ATTACAAATATACTTATGTATAGTTGCCAGCTCAACTGCTCGGAGTCACCTAGTGCAG,5610 fluorescence intensity (a.u.)
13,CTCCTGCTTGTCTCGTTGCGTGGCCGTGGCCTTGTGCGGTCGGAGTCACCTAGTGCAG,4860 fluorescence intensity (a.u.)
14,TGCACAATCCGACTGTAAATTACGAGATGAATCTTTTGAGCGGAGTCACCTAGTGCAG,25900 fluorescence intensity (a.u.)
15,TCCACCCCTCCTGGAGCTGGAGCTGTGCCAAATAGGCCCTCGGAGTCACCTAGTGCAG,3660 fluorescence intensity (a.u.)
16,ATCAACCTGGAAAGATCCCACGCCTAGTCACCATCTATATCGGAGTCACCTAGTGCAG,6610 fluorescence intensity (a.u.)
17,CCTCACAGTCCTCCACTCACGCACGTCGTCGCCGTCGCCGCGGAGTCACCTAGTGCAG,3830 fluorescence intensity (a.u.)
18,AAATTTCAGTACCATCCACGCCAAAATTAAGGGTGTGTTTCGGAGTCACCTAGTGCAG,3970 fluorescence intensity (a.u.)
19,TTTCTATGGAAGTTTAACTTTGTGCTTAGGTCAGCTTTGTCGGAGTCACCTAGTGCAG,3610 fluorescence intensity (a.u.)
20,AAGTGTGTTGGTTGGTGGCATTGTGCTGCGCATGGAGGTTCGGAGTCACCTAGTGCAG,3230 fluorescence intensity (a.u.)
21,GTGTTTTGTTAATAGTTGTGTGGTGTATATGGTTGCGTGTCGGAGTCACCTAGTGCAG,4880 fluorescence intensity (a.u.)
22,GCGGGAACGAGTCCGAATCCGTGTCCCGTGTTCGCGCGCTCGGAGTCACCTAGTGCAG,3260 fluorescence intensity (a.u.)
23,GTACGACGGAACGTGGCACGGTCAGTGTGTGGTTTGTTGCCGGAGTCACCTAGTGCAG,3390 fluorescence intensity (a.u.)
24,ACTTTGTTATGACGTGACCAATATATTTAAGTAATTCTGTCGGAGTCACCTAGTGCAG,5630 fluorescence intensity (a.u.)
25,TGCCAAATGTTGAAACACTTACAGTAGCATCTAATGAAGTCGGAGTCACCTAGTGCAG,16000 fluorescence intensity (a.u.)
26,CGGCGGCGCACAGCCGGCCTTCCACCGCAGCGGAGAGGCCCGGAGTCACCTAGTGCAG,35600 fluorescence intensity (a.u.)
27,ACCTCCCACGCGCTGCCACGCCGGCGACACGACCACTGCCCGGAGTCACCTAGTGCAG,8960 fluorescence intensity (a.u.)

# Part of the list above, as tab-separated lines.
row	Sequence	binding signal
1	CTAGTTCGCTACAGCGAATCGGTGAATAGTAATTCTGAACCGGAGTCACCTAGTGCAG	33700 fluorescence intensity (a.u.)
8	AGATCTTCCTCACCGCTAGCCACGCGCGGCATCCACTCCGCGGAGTCACCTAGTGCAG	3660 fluorescence intensity (a.u.)
21	GTGTTTTGTTAATAGTTGTGTGGTGTATATGGTTGCGTGTCGGAGTCACCTAGTGCAG	4880 fluorescence intensity (a.u.)
